PubChem BioAssay AID1259308 – NCATS | 2017

Screen: 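Knock-downs that increase output of a recombinant reporter protein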 (primary screen)
Cells: human HEK293 embryonic kidney cells stably expressing firefly luciferase (HEK-CMV-Luc2-Hygro)
Reagent: single siRNA against human genes, 0.8 pmol siRNA per well
Time to read-out: 72 h
Measurement: 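Luciferase light (ONE-Glo) measured on one replicate plate set and viability (CellTiter-Glo) on the other, scaled to a negative control siRNA, with robust z-scores and luciferase per cell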
Direction: total luciferase, z-score and total luciferase, % of control: higher = more reporter protein produced; luciferase per cell, z-score: higher = more reporter output per viable cell; viable cells, % of control: higher = more viable cells
Rule for the call: 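Active when the median/MAD z-score for overall luciferase is greater than 3; a gene was taken forward for validation with new siRNAs if at least two of its three siRNAs passed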
Calls: active = raised luciferase; inactive = no rise
Shown is an unselected part of about 59,000 deposited reagents. About 1,510 of them (2.6%) count as active. 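Calls use total luciferase alone and ignore viability, so some active siRNAs may act by altering cell number.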 A number with no mark means an inactive call. Reagents against one gene are numbered here.

Target gene	reagent	total luciferase, z-score	total luciferase, % of control	luciferase per cell, z-score	viable cells, % of control
MRGPRX1	1	2.35	129	1.82	88.9
MRGPRX1	2	1.95	121	1.6	88.4
MRGPRX1	3	-0.254	76.8	-0.632	101
ZNF287	1	-0.864	64.7	-1.33	103
ZNF287	2	-0.604	69.9	-0.865	98
ZNF287	3	4.28 (active)	167	3.03	84
FAR2	1	0.443	90.7	0.36	92.2
FAR2	2	0.364	89.1	-0.435	112
FAR2	3	-0.421	73.5	-0.847	103
WFDC9	1	-1.72	47.7	-1.26	74.3
WFDC9	2	-0.817	65.6	-0.675	87.6
WFDC9	3	0.939	101	-0.0218	113
TNRC6C	1	0.523	92.3	-0.177	108
TNRC6C	2	1.55	113	1.5	84.9
TNRC6C	3	0.182	85.5	-0.683	114
GPRASP2	1	0.0379	82.6	-0.108	95
GPRASP2	2	-0.748	67	-0.395	83.1
GPRASP2	3	1.86	119	0.572	114
TRIM65	1	-0.349	75	-0.351	91.9
TRIM65	2	-0.852	64.9	-1.19	99.2
TRIM65	3	-0.469	72.6	1.42	55.8
PTPRQ	1	0.156	85	1.56	62.9
PTPRQ	2	-0.53	71.3	-0.0366	80.5
PTPRQ	3	-2.02	41.8	-1.18	63.6
MAP4K5	1	0.55	92.8	0.225	97.8
MAP4K5	2	-0.807	65.8	-0.499	83.9
MAP4K5	3	-0.993	62.1	-1.02	90.8
PXDC1	1	0.62	94.2	-0.314	114
PXDC1	2	2.5	132	3.64	56.4
PXDC1	3	-0.403	73.9	-0.37	91
SAR1AP3	1	-0.324	75.4	0.318	77.5
SAR1AP3	2	-1.7	48.1	-0.922	68.6
SAR1AP3	3	0.656	94.9	0.39	95.7
MBD3L2	1	0.112	84.1	0.138	90.7
MBD3L2	2	0.205	86	0.0718	94.3
MBD3L2	3	1.13	104	0.812	94.1
ATP5MC2	1	0.9	99.8	0.955	86.7
ATP5MC2	2	-0.823	65.5	-1.51	109
ATP5MC2	3	2.14	125	1.7	88.9
RPS6	1	-3.1	20.1	-3.8	61.2
RPS6	2	-1.5	52.1	2.1	33.4
RPS6	3	-2.74	27.4	-3.14	70.1
GH2	1	0.369	89.2	0.319	91.7
GH2	2	1.16	105	0.492	103
GH2	3	1.99	121	1.29	96.7
RSKR	1	2.98	141	1.53	105
RSKR	2	0.0435	82.8	-0.8	114
RSKR	3	-0.663	68.7	-0.159	80.1
RSKR	4	-0.603	69.9	-0.291	84.3
RSKR	5	-0.556	70.8	-1.03	104
RSKR	6	1.86	119	1.79	82.9
SSPOP	1	-0.409	73.7	-0.487	93.7
SSPOP	2	0.615	94.1	0.087	103
SSPOP	3	0.969	101	1.52	75.8
CASQ2	1	0.626	94.3	0.529	91.7
CASQ2	2	-0.0317	81.3	-0.525	104
CASQ2	3	-0.512	71.7	-0.253	85.6
ABCC2	1	0.26	87.1	0.484	85.6
ABCC2	2	0.217	86.2	-0.195	101
ABCC2	3	-1.01	61.7	-0.75	84.1
SNW1	1	-1.03	61.4	0.48	60.5
SNW1	2	-0.263	76.7	0.422	76.7
SNW1	3	0.776	97.3	1.57	72
MRPS27	1	0.397	89.8	-0.263	108
MRPS27	2	-0.743	67.1	-0.243	79.9
MRPS27	3	0.653	94.9	0.208	100
CLVS1	1	-0.266	76.6	1.71	54.6
CLVS1	2	-0.278	76.4	0.021	84.9
CLVS1	3	-0.541	71.1	-0.942	102
BMP1	1	-0.54	71.2	-0.508	90.9
BMP1	2	-0.266	76.6	-0.233	91
BMP1	3	-0.182	78.3	0.0455	86.4
CNOT9	1	-0.962	62.8	-0.935	89.7
CNOT9	2	0.658	95	0.579	91.1
CNOT9	3	-0.285	76.2	-0.47	96.4

Reagents listed above called active, once more:
Target gene	reagent	total luciferase, z-score	total luciferase, % of control	luciferase per cell, z-score	viable cells, % of control
ZNF287	3	4.28 (active)	167	3.03	84
